Test results reported in the supplement of paper PMC11150407.
The whole screen tested about 3,000 compounds, of which about 45 (2%) showed an effect of 50% or more. The list shows a part of the results.

test system: MOLM1 and UCSD/AML1 (averaged); experiment: cell viability relative to DMSO control (POC); higher = less growth inhibition; conditions: 1 µM; 72 h
Protocol: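 Primary viability screen in the 3q26 EVI1-high AML cell lines MOLM1 and UCSD/AML1, compounds at 1 uM for 72 h. ATP CellTiter-Glo read-out given as percent viable over DMSO control (POC), averaged over duplicates. This mapping covers the TimTec NDL-3000 natural derivative library, whose compounds are identified by TimTec catalogue codes (ST...).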

**Q.** `CC(=O)c1c(C)n(CCO)c2ccc(O)cc12` was tested. Which cell viability did it give?
**A.** The cell viability was 113%.

**Q.** For `O=C1C2Cc3c([nH]c4ccccc34)C(c3ccccc3)N2C(=S)N1c1ccccc1` (stereo not given), which cell viability is on record?
**A.** Its cell viability is 90.6%.

**Q.** `O=C(Cn1c(=O)cc(C(=O)NCc2ccccc2)c2ccccc21)Nc1ccccc1F` was tested. Which cell viability did it give?
**A.** Its cell viability is 96.4%.

**Q.** With `O=c1cc(-c2ccccc2)oc2cc(O)c(O)cc12` as the compound, how does the cell viability read?
**A.** The cell viability was 93.2%.

**Q.** `COC(=O)C(Cc1c[nH]c2ccccc12)NC(=O)COc1ccc2c(C)cc(=O)oc2c1` (stereo not given) was tested. Which cell viability did it give?
**A.** The cell viability was 91.9%.

**Q.** How did the cell viability turn out when `COC1OC(C)C(OCc2ccccc2)C(O)C1O` (stereo not given) was run?
**A.** The cell viability was 96.9%.

**Q.** For `CCCc1ccc(OCCn2c(C)c(C(=O)OCCOC)c3cc(O)c4ccccc4c32)cc1`, which cell viability is on record?
**A.** Its cell viability is 67.3%.

**Q.** `COc1cc(Cc2nccc3cc(OC)c(OC)cc23)c(NC(=O)CSC2CCS(=O)(=O)C2)cc1OC` (stereo not given) was tested. Which cell viability did it give?
**A.** The cell viability was 100%.

**Q.** With `O=C(COc1ccc2c(c1)CCCC2)c1ccc2c(c1)OCCO2` as the compound, how does the cell viability read?
**A.** The cell viability was 102%.

**Q.** For `COc1cc(C(=O)NCCOc2ccc(C)cc2)cc(OC)c1OC`, which cell viability is on record?
**A.** Its cell viability is 104%.

**Q.** Which cell viability does the source give for `CCCCOc1ccccc1-n1c(-c2cccc(OC)c2)cn2c3c(=O)n(C)c(=O)n(C)c3nc12` here?
**A.** Its cell viability is 84.6%.

**Q.** How did the cell viability turn out when `O=C(CN1CCc2ccccc2C1)Nc1cc(C(F)(F)F)cc(C(F)(F)F)c1` was run?
**A.** Its cell viability is 96.2%.

**Q.** `CCOC(=O)CNC(=O)c1ccccc1Cl` was tested. Which cell viability did it give?
**A.** Its cell viability is 97.7%.

**Q.** `CCn1cc(C(=O)O)c(=O)c2cnc(N3CCNCC3)nc21` was tested. Which cell viability did it give?
**A.** Its cell viability is 111%.

**Q.** With `Cc1[nH]c2ccccc2c1CCNC(=O)c1ccc(C(F)(F)F)cc1` as the compound, how does the cell viability read?
**A.** Its cell viability is 86.2%.

**Q.** Which cell viability does the source give for `COc1cc2nc(N3CCN(C(=O)c4ccco4)CC3)nc(N)c2cc1OC` here?
**A.** Its cell viability is 109%.

**Q.** With `OC1(c2cc(-c3ccc(F)cc3)no2)CCC2COC1O2` (stereo not given) as the compound, how does the cell viability read?
**A.** The cell viability was 109%.

**Q.** How did the cell viability turn out when `CCOc1ccc2oc(=O)cc(Cn3c(=O)c4c(C(=O)OC)cc(C)nc4n(C)c3=O)c2c1` was run?
**A.** The cell viability was 110%.

**Q.** How did the cell viability turn out when `COC(=O)C1=C(C)N(C)C(=O)NC1c1cc(Br)c(O)c(OC)c1` (stereo not given) was run?
**A.** Its cell viability is 116%.

**Q.** With `O=c1cc(-c2ccccc2Br)oc2ccc(Cl)cc12` as the compound, how does the cell viability read?
**A.** The cell viability was 110%.

**Q.** How did the cell viability turn out when `COc1ccc(C2NC(C(=O)O)Cc3c2[nH]c2ccccc32)cc1CSc1nnc(-c2ccccc2)o1` (stereo not given) was run?
**A.** The cell viability was 89.9%.

**Q.** How did the cell viability turn out when `CCn1c(SCC(=O)Nc2ccc(F)cc2F)nc2c(=O)[nH]cnc21` was run?
**A.** Its cell viability is 94.6%.

**Q.** With `COc1cc(C=O)ccc1OC(C)C` as the compound, how does the cell viability read?
**A.** Its cell viability is 102%.

**Q.** With `COC(=O)C1=C(N)Oc2c(oc(CO)cc2=O)C1c1c(F)cccc1Cl` (stereo not given) as the compound, how does the cell viability read?
**A.** Its cell viability is 107%.

**Q.** How did the cell viability turn out when `COc1ccc(C(=O)Nc2cccc(C(=O)c3ccncc3)c2)cc1OC` was run?
**A.** The cell viability was 101%.

**Q.** With `O=C(CSc1nc2ccccc2c(=O)[nH]1)NCc1ccccc1` as the compound, how does the cell viability read?
**A.** The cell viability was 105%.

**Q.** Which cell viability does the source give for `Cc1ccc(C(=O)Nc2ccccc2C(=O)NC(Cc2c[nH]c3ccccc23)C(=O)O)cc1` (stereo not given) here?
**A.** Its cell viability is 102%.

**Q.** With `CCOC(=O)CNC(=O)c1ccc(OC(C)=O)cc1` as the compound, how does the cell viability read?
**A.** Its cell viability is 101%.

**Q.** How did the cell viability turn out when `COc1ccc(C(=O)c2sc(Nc3ccc(F)cc3)nc2N)cc1OC` was run?
**A.** Its cell viability is 101%.

**Q.** `CCOC(=O)N1CCc2[nH]c3ccc(Cl)cc3c2C1` was tested. Which cell viability did it give?
**A.** The cell viability was 89.6%.
